Measured values from patent US20030148377A1, “Binding compounds and methods for identifying binding compounds” (priority 2000, published 2003).
Not every detail of the peptide structures is certain; ends, links or a residue may be inferred. No end group written: not given here.

Experiments:
ZAP-70-GST-fused protein = biological target: T1, ZAP-70-GST-fused protein (Homo sapiens, UniProt P43403); assay: Kinetic parameters for the phosphorylation of synthetic peptides by ZAP-70 (phosphocellulose assay); format: biochemical; conditions: for Vmax: peptide as substrate, 100 μM ATP, 5 min at 30° C., average of three independent experiments
T1 construct: made in house; host or cells: Sf9 cells (baculovirus)
T1 sequence (P43403 1-619): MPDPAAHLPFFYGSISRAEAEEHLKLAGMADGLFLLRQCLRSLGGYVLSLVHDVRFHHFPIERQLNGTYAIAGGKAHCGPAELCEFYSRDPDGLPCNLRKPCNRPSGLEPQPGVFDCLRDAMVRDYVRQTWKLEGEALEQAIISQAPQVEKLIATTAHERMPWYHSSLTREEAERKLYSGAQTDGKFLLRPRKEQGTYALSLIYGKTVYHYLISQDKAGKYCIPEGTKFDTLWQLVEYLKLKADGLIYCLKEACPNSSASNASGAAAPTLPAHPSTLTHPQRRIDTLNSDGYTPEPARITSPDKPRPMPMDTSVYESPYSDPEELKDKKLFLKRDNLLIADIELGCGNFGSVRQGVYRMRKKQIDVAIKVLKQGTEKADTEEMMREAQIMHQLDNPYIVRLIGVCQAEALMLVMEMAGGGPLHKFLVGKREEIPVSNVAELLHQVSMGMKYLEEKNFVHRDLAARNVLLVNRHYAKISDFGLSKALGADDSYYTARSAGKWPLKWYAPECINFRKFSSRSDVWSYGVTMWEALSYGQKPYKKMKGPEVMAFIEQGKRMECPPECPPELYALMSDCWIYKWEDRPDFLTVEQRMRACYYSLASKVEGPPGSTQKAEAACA
Procedure: Human ZAP-70-glutathione S-transferase (GST)-fused protein was expressed in Sf9 cells using baculovirus. In this study, we used GST-ZAP-70 expressed in Sf9 cells without coexpression of Lck for library screening and kinase assays because the substrate selectivity of partially activated ZAP-70 is higher than that of fully activated ZAP-70 in peptide library screening for their specific substrate motifs (unpublished results). ZAP-70-GST fused protein (600 μg) was purified by using glutathione-agarose beads. The fused protein bound to the beads was packed in a small column and incubated with 450 μg of the peptide library in a solution containing 100 μM ATP, 1 mM DTT, 5 mM EDTA, and 50 mM Tris (pH 7.4), for 10 min at room temperature. Unbound peptides were removed by rapid washing, and bound peptides were eluted with 30% acetic acid for 10 min at room temperature, dried overnight on a Speed-Vac apparatus, resuspended in H2O, and sequenced on an Applied Biosystems model 477A protein sequencer (Applied Biosystems, Foster City, Calif.) (Songyang et al., 1994).
Synthetic peptides, tubulin, or GST-band III (construct kindly provided by A. Weiss, University of California, San Francisco) (Zhao and Weiss, 1996) were phosphorylated by ZAP-70-GST-fused protein in the presence or absence of the indicated amount of inhibitory peptides in the kinase buffer (10 mM MnCl2, 50 mM Tris [pH 7.4], 1 mM DTT), 100 μM ATP, and 5 μCi [γ-^32P]ATP for 5 min (or 10 min for GST-band-III) at 30° C. The amount of radioactivity incorporated into substrate peptide was determined using the phosphocellulose assay. Lck-GST-fused protein was purified from Sf9 cells. Myelin basic protein was phosphorylated by Lck-GST-fused protein in the presence or absence of inhibitory peptides in the kinase buffer (5 mM MnCl2, 5 mM MgCl2, 25 mM Tris [pH 7.4]), 50 μM ATP, and 5 μCi [γ-^32P]ATP for 5 min at 30° C. Myc-tagged Syk kinase was expressed and purified from COS-7 cells (pEBM-Syk-myc was prepared from original myc-tagged Syk cDNA provided by R. Geahlen, Purdue University). GST-band III was phosphorylated by myc-tagged Syk in the presence or absence of inhibitory peptides in the kinase buffer (10 mM MnCl2, 0.1% Triton X-100, 50 mM Tris [pH 7.2]), 250 μM ATP, and 5 μCi [γ-^32P]ATP for 10 min at 30° C. Phosphorylated tubulin, GST-band III, and myelin basic protein were separated on SDS-PAGE, visualized by autoradiography, and quantitated using a molecular imager (Bio-Rad, Hercules, Calif.).
For each experimental condition, values for control reactions lacking substrate peptide were subtracted as blanks. In all assays to determine kinetic parameters, reaction rates were linear with respect to time for all conditions of peptide, and less than 10% of the peptide substrate was phosphorylated. Km and Vmax were determined by nonlinear regression analysis using KaleidaGraph (Abelbeck Software, Reading, Pa.). Each experiment consisted of 6-7 substrate concentrations.
Three synthetic peptides, EEEEYFFII AKKK (peptide 1; SEQ ID NO: 5), KLILYLLLL AKKK (peptide 2; SEQ ID NO: 6), and ELILYLLLL AKKK (peptide 3; SEQ ID NO: 8), were phosphorylated by ZAP-70-GST-fused protein in the kinase buffer (10 mM MnCl2, 50 mM Tris (pH 7.4), 1 mM DTT), 100 μM ATP, and 5 μCi [γ-^32P]ATP for 5 min at 30° C. The amount of radioactivity incorporated was determined using the phosphocellulose assay. Values are the average of three independent experiments.

ZAP-70 = biological target: T2, ZAP-70 (Homo sapiens, UniProt P43403); assay: Inhibition of tubulin phosphorylation by ZAP-70; format: biochemical; conditions: 0, 50, or 100 μM peptide; FIG. 1A
T2 construct: made in house; host or cells: Sf9 cells (baculovirus)
T2 sequence (P43403 1-619): T1 sequence (P43403 1-619)
Procedure: FIG. 1A: A glutathione-S-transferase chimera of ZAP-70 was purified from Sf9 cells and assayed for its ability to phosphorylate tubulin in the presence of 0, 50, or 100 μM of peptide 1 (SEQ ID NO: 5) or peptide 2 (SEQ ID NO: 6). The assay was carried out in kinase buffer (5 mM MnCl2, 5 mM MgCl2, 25 mM Tris [pH 7.4]), 50 μM ATP, and […] [γ-^32P]ATP for 5 min at 30° C. ^32P-phosphorylated tubulin was separated on SDS-PAGE, visualized by autoradiography (inset), and quantitated using a molecular imager (Bio-Rad).
FIG. 1D: The ZAP-70 Tyr-kinase assay was as described above, using tubulin (5 μM) as substrate. […]
Synthetic peptides, tubulin, or GST-band III (construct kindly provided by A. Weiss, University of California, San Francisco) (Zhao and Weiss, 1996) were phosphorylated by ZAP-70-GST-fused protein in the presence or absence of the indicated amount of inhibitory peptides in the kinase buffer (10 mM MnCl2, 50 mM Tris [pH 7.4], 1 mM DTT), 100 μM ATP, and 5 μCi [γ-^32P]ATP for 5 min (or 10 min for GST-band-III) at 30° C. The amount of radioactivity incorporated into substrate peptide was determined using the phosphocellulose assay. […] Phosphorylated tubulin, GST-band III, and myelin basic protein were separated on SDS-PAGE, visualized by autoradiography, and quantitated using a molecular imager (Bio-Rad, Hercules, Calif.).

**Q.** “EEEEYFFIIAKKK [peptide 1, EEEEYFFII AKKK]” was tested. Which Vmax (ZAP-70-GST-fused protein) did it give?
**A.** 80 nmo1/min/mg

**Q.** Which “Km, fold higher than peptide 2” value (ZAP-70-GST-fused protein; compared to peptide 2) does the source give for “ELILYLLLLAKKK [peptide 3, ELILYLLLL AKKK]” here?
**A.** 7 fold

**Q.** What about the Vmax (ZAP-70-GST-fused protein) of the same sequence?
**A.** 18 nmo1/min/mg

**Q.** For “KLILYLLLLAKKK [peptide 2, KLILYLLLL AKKK]”, which “inhibiting tubulin phosphorylation by ZAP-70 (in words)” value (ZAP-70) is on record?
**A.** much more effective than peptide 1

**Q.** And the “Vmax, fold lower than optimal substrate peptide (peptide 1)” value (ZAP-70-GST-fused protein; compared to peptide 1)?
**A.** 14 fold

**Q.** And the Vmax (ZAP-70-GST-fused protein)?
**A.** 6 nmo1/min/mg
